Data set [1] is described as follows: general procedure: Fmoc solid-phase peptide synthesis; Fmoc-Ala-Wang Resin; DIC/HOBt. The following applies: whole synthesis, scale 0.25 mmol.
A further data set is described as follows: peptide synthesis. The following applies: oxidative folding step.

Among the data in publication PMC10663622 (2023) are isolated mass, isolated yield and oxidative folding yield values, retold here.

For part of these data: Some peptides are written in HELM: one residue between dots, names in brackets for other building blocks, links after the first $.

In data set [1], “H-Phe-Val-Asn-Gln-His-Leu-Sec(SePys)-Gly-Ser-His-Leu-Val-Glu-Ala-Leu-Tyr-Leu-Val-Cys(SPys)-Gly-Glu-Arg-Gly-Phe-Phe-Tyr-Thr-Pro-Lys-Ala-OH” returned an isolated mass of 2.30 µmol and an isolated yield of 10%.
In turn, “PEPTIDE1{G.I.V.E.Q.C.[Sec].A.S.V.C.S.L.Y.Q.L.E.N.Y.C.N}|PEPTIDE2{F.V.N.Q.H.L.[Sec].G.S.H.L.V.E.A.L.Y.L.V.C.G.E.R.G.F.F.Y.T.P.K.A}$PEPTIDE1,PEPTIDE1,6:R3-11:R3|PEPTIDE1,PEPTIDE2,7:R3-7:R3|PEPTIDE1,PEPTIDE2,20:R3-19:R3$$$V2.0” came in with an oxidative folding yield in “peptide synthesis” of 72 ± 4%.
